PubChem BioAssay AID504774 – Drosophila RNAi Screening Center | 2011
The deposit covers about 23,000 reagents; this is a random part of those that have a named target and a result. 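Values are quantile-normalised luminescence on an arbitrary scale; higher means more cells surviving MMS.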 The numbers tell different reagents against one gene apart.

- Screen: 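Knock-downs that shift viability of MMS-exposed cells relative to untreated ones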 (primary screen)
- Cells: Drosophila Kc167 cells
- Reagents: long dsRNA against Drosophila genes, about 0.25 µg dsRNA per well
- Time to read-out: about 6 days: 3 days knock-down, then 3 days with or without MMS
- Treatment: methyl methanesulphonate 0.004% (w/v) for 3 days after knock-down
- Measured: 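Viability in wells given MMS, read as ATP luminescence, normalised by quantiles plate by plate and averaged across replicates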
- Scale: mean viability with MMS and viability with MMS: higher = more surviving cells after MMS

target gene	dsRNA no.	mean viability with MMS	viability with MMS, replicate 1	viability with MMS, replicate 2
CG42258 (GeneID 32196)	1	3.49e6	3.90e6	3.99e6
CG42258 (GeneID 32196)	2	2.98e6	3.65e6	3.69e6
CG42258 (GeneID 32196)	3	3.31e6	3.78e6	3.74e6
CG15404 (GeneID 33537)	1	3.59e6	4.02e6	4.09e6
bves (GeneID 33083)	1	3.49e6	3.94e6	3.99e6
bves (GeneID 33083)	2	3.59e6	3.96e6	4.16e6
bves (GeneID 33083)	3	3.54e6	3.96e6	4.07e6
Ir85a (GeneID 41052)	1	3.59e6	4.12e6	4.03e6
CG14868 (GeneID 41875)	1	2.05e6	4.21e6	4.17e6
pont (GeneID 53439)	1	2.86e6	3.66e6	3.63e6

Continued, starting with the last 3 of the part before.
target gene	dsRNA no.	mean viability with MMS	viability with MMS, replicate 1	viability with MMS, replicate 2
Ir85a (GeneID 41052)	1	3.59e6	4.12e6	4.03e6
CG14868 (GeneID 41875)	1	2.05e6	4.21e6	4.17e6
pont (GeneID 53439)	1	2.86e6	3.66e6	3.63e6
mtd (GeneID 45467)	1	3.73e6	4.18e6	4.28e6
mtd (GeneID 45467)	2	3.61e6	4.04e6	4.18e6
mtd (GeneID 45467)	3	3.53e6	3.97e6	4.04e6
Prosbeta5R1 (GeneID 37690)	1	3.40e6	3.67e6	3.99e6
CG6052 (GeneID 39971)	1	3.66e6	4.13e6	4.12e6
CG31793 (GeneID 326161)	1	3.82e6	4.32e6	4.23e6
CG11251 (GeneID 39490)	1	3.61e6	4.09e6	4.05e6
CG9525 (GeneID 34217)	1	3.50e6	3.94e6	4.01e6
CG14265 (GeneID 31297)	1	3.54e6	3.95e6	4.10e6
Inx3 (GeneID 44266)	1	3.58e6	4.00e6	4.11e6
Ser8 (GeneID 36489)	1	3.58e6	4.07e6	3.90e6
Dpp10 (GeneID 33923)	1	3.41e6	3.82e6	3.97e6
Dpp10 (GeneID 33923)	2	3.59e6	4.09e6	4.02e6
Lcp9 (GeneID 37963)	1	3.41e6	3.95e6	3.75e6
Ptip (GeneID 39552)	1	3.41e6	3.80e6	3.87e6
Ptip (GeneID 39552)	2	3.21e6	3.63e6	3.67e6
CG12325 (GeneID 36144)	1	3.47e6	3.86e6	3.98e6
RpS7 (GeneID 43594)	1	3.00e6	3.55e6	3.55e6
